Measurements reported in PubChem BioAssay AID504764 (Drosophila RNAi Screening Center, 2011)
The screen tested about 22,000 reagents; shown is a random part of those that have a named target and a result. In the full data, 403 (1.9%) are marked active. 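Unnormalised raw counts per well; ratio z-scores behind the hit calls and whether each hit raises or lowers signal are not deposited.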 Names joined by + are all predicted targets of the reagent. The record does not give: the amount of reagent.

Purpose: 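Knock-downs that raise or lower a Notch target reporter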 (primary screen)
Cell system: Drosophila Kc167 cells
Knock-down reagent: long dsRNA against Drosophila genes
Timing: about 5 days (4 days dsRNA, then 24 h after transfection)
Treatment: transfection of constitutively active membrane-tethered Notch lacking the extracellular domain, read 24 h later
Measured: 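Firefly luciferase from an E(spl)m3 reporter with active Notch, plus control-promoter and uninduced reporter wells for normalisation; unnormalised counts, duplicate wells a and b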
Scale: induced reporter light, run 1, well a and induced reporter light, run 1, well b: higher = more light from the Notch target reporter with active Notch; control promoter light, run 1, well a and control promoter light, run 1, well b: higher = more light from the viral control promoter (cell number, transfection, viability); uninduced reporter light, run 1, well a: higher = more light from the Notch target reporter without active Notch
Active means: 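Wells with low control signal or poorly matching duplicates excluded; duplicates averaged; per source plate, z beyond ±2 for induced/control log2 ratio or beyond ±1.8 for induced/uninduced marks a hit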
Meaning of the calls: active = modifier hit (raised or lowered Notch signal); inactive = not a hit

Depletion of IFT57 [SID104180512] gave: induced reporter light, run 1, well a = 1.77e5; induced reporter light, run 1, well b = 1.57e5; control promoter light, run 1, well a = 1.95e5; control promoter light, run 1, well b = 1.60e5; uninduced reporter light, run 1, well a = 13240; inactive. After knock-down of PIG-K [SID104198288], the record shows induced reporter light, run 1, well a = 89360; induced reporter light, run 1, well b = 94190; control promoter light, run 1, well a = 1.75e5; control promoter light, run 1, well b = 1.55e5; uninduced reporter light, run 1, well a = 8942; inactive. CG32536 + CG32537 [SID104199866] scored induced reporter light, run 1, well a = 1.27e5; induced reporter light, run 1, well b = 1.14e5; control promoter light, run 1, well a = 1.46e5; control promoter light, run 1, well b = 1.92e5; uninduced reporter light, run 1, well a = 13865; inactive. With knock-down of Or67c [SID104191034] the results were induced reporter light, run 1, well a = 2.11e5; induced reporter light, run 1, well b = 1.62e5; control promoter light, run 1, well a = 1.97e5; control promoter light, run 1, well b = 1.58e5; uninduced reporter light, run 1, well a = 8335; inactive. With knock-down of v [SID104200175], the record shows induced reporter light, run 1, well a = 1.85e5; induced reporter light, run 1, well b = 1.46e5; control promoter light, run 1, well a = 2.01e5; control promoter light, run 1, well b = 2.14e5; uninduced reporter light, run 1, well a = 12525; inactive. With knock-down of CG31262 [SID104193008] the results were induced reporter light, run 1, well a = 1.40e5; induced reporter light, run 1, well b = 1.47e5; control promoter light, run 1, well a = 1.80e5; control promoter light, run 1, well b = 1.57e5; uninduced reporter light, run 1, well a = 9375; inactive.

TppII [SID104187357] gave induced reporter light, run 1, well a = 1.64e5; induced reporter light, run 1, well b = 1.85e5; control promoter light, run 1, well a = 1.51e5; control promoter light, run 1, well b = 1.53e5; uninduced reporter light, run 1, well a = 14360; inactive. With knock-down of CG1304 [SID104200286], the record shows induced reporter light, run 1, well a = 88535; induced reporter light, run 1, well b = 81660; control promoter light, run 1, well a = 1.29e5; control promoter light, run 1, well b = 1.44e5; uninduced reporter light, run 1, well a = 11175; inactive. Silencing of CG7675 [SID104196072] came out at: induced reporter light, run 1, well a = 2.09e5; induced reporter light, run 1, well b = 2.16e5; control promoter light, run 1, well a = 2.14e5; control promoter light, run 1, well b = 2.59e5; uninduced reporter light, run 1, well a = 17830; inactive. rump [SID104196272] scored induced reporter light, run 1, well a = 1.01e5; induced reporter light, run 1, well b = 1.01e5; control promoter light, run 1, well a = 76975; control promoter light, run 1, well b = 73270; uninduced reporter light, run 1, well a = 8325; inactive. CG1288 [SID104192330] gave induced reporter light, run 1, well a = 88780; induced reporter light, run 1, well b = 93420; control promoter light, run 1, well a = 44730; control promoter light, run 1, well b = 47015; uninduced reporter light, run 1, well a = 7085; inactive. Knock-down of CG9458 [SID104196287] gave: induced reporter light, run 1, well a = 94215; induced reporter light, run 1, well b = 83895; control promoter light, run 1, well a = 93045; control promoter light, run 1, well b = 76260; uninduced reporter light, run 1, well a = 7170; inactive.

Against CG42821 + CG42822 [SID104193023] the deposit lists induced reporter light, run 1, well a = 48225; induced reporter light, run 1, well b = 57650; control promoter light, run 1, well a = 67895; control promoter light, run 1, well b = 52695; uninduced reporter light, run 1, well a = 7365; inactive. CG42821 + CG42822 [SID104193024] showed induced reporter light, run 1, well a = 59410; induced reporter light, run 1, well b = 43795; control promoter light, run 1, well a = 59275; control promoter light, run 1, well b = 52090; uninduced reporter light, run 1, well a = 6792; inactive. Knock-down of CG11211 [SID104184643] resulted in: induced reporter light, run 1, well a = 1.65e5; induced reporter light, run 1, well b = 1.41e5; control promoter light, run 1, well a = 1.52e5; control promoter light, run 1, well b = 1.51e5; uninduced reporter light, run 1, well a = 9820; inactive. Against Det [SID104194281] the deposit lists induced reporter light, run 1, well a = 1.62e5; induced reporter light, run 1, well b = 1.78e5; control promoter light, run 1, well a = 1.86e5; control promoter light, run 1, well b = 1.95e5; uninduced reporter light, run 1, well a = 16720; inactive. For CG31867 [SID104183130], the values are induced reporter light, run 1, well a = 1.17e5; induced reporter light, run 1, well b = 1.39e5; control promoter light, run 1, well a = 61125; control promoter light, run 1, well b = 87405; uninduced reporter light, run 1, well a = 14885; inactive. Silencing of eIF4E5 [SID104190767] gave: induced reporter light, run 1, well a = 1.79e5; induced reporter light, run 1, well b = 1.98e5; control promoter light, run 1, well a = 2.76e5; control promoter light, run 1, well b = 1.65e5; uninduced reporter light, run 1, well a = 6870; inactive.
